Experimental data as given in article PMC7227406, “Protein Phosphatases Type 2C Group A Interact with and Regulate the Stability of ACC Synthase 7 in Arabidopsis” (Cells, 2020).
Like-named read-outs stand apart in the source and are kept apart here. No constants are given. Whether binding was seen depends on the method and setting. Binding seen in cells or lysates may run through a third protein. Some results given as binding are weak or reduced against the parent protein; the word gives no strength. For some assays here: Tags and fused reporters may be left off the sequences shown.

Sequences of proteins named here, by UniProt entry; tags and fusion partners are left off.
UniProt P49597: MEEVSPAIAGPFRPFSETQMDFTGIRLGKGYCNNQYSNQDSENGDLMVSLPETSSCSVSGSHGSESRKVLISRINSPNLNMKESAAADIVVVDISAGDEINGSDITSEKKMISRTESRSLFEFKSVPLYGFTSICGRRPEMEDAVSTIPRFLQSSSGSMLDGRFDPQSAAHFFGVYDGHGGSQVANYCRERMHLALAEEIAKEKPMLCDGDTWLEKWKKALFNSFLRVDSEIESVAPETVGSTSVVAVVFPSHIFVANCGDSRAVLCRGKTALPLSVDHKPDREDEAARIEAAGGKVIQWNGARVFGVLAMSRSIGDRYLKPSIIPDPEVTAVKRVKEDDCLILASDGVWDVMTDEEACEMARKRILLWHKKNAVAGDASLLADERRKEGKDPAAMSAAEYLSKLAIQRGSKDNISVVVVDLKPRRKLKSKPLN
UniProt O04719: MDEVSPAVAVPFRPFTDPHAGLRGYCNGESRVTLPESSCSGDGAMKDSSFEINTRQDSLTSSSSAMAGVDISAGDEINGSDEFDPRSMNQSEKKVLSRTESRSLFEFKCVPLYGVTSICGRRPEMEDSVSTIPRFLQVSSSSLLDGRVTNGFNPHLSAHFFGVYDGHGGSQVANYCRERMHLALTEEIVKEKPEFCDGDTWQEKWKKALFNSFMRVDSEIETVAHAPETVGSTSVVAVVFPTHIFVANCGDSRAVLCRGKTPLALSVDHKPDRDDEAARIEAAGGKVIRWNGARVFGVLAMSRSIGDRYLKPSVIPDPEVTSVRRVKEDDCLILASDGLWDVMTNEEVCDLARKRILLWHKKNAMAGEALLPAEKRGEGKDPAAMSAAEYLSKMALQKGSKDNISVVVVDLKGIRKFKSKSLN

What was measured:
Test in all cases: split reporter; multicolor BiFC (mcBiFC) in Arabidopsis leaf mesophyll protoplasts; plasmids for nVenus and cCFP fusions mixed 1:1, PEG-mediated transformation, overnight at room temperature; confocal microscopy, 488 nm excitation, 500–550 nm emission; CBP20–RFP as transformation control and nuclear marker
[1] = biological target: T1, nVenus–ACS7 Δ2 (ACS7^1–100) (Arabidopsis thaliana) (UniProt Q9STR4)
T1 sequence: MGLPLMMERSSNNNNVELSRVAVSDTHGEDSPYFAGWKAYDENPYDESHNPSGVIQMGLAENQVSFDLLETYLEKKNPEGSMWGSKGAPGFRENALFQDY

[2] = biological target: T2, nVenus–ACS7 (1-aminocyclopropane-1-carboxylate synthase 7 fused with the N-terminal fragment of Venus) (Arabidopsis thaliana) (UniProt Q9STR4)
T2 sequence: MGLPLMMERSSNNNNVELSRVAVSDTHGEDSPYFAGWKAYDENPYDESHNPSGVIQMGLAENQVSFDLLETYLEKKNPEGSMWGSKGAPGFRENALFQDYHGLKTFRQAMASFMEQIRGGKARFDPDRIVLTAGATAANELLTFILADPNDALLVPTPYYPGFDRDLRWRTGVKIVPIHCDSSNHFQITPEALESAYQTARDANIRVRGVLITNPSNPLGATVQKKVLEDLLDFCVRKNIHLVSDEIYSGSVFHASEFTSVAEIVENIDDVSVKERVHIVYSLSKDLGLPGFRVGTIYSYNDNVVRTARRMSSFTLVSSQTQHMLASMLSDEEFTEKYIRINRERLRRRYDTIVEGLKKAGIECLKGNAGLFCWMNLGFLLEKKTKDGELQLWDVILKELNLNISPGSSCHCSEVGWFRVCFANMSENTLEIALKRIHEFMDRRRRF

[3] = biological target: T3, nVenus–ACS7 Δ4 (ACS7^101–447) (Arabidopsis thaliana) (UniProt Q9STR4)
T3 sequence: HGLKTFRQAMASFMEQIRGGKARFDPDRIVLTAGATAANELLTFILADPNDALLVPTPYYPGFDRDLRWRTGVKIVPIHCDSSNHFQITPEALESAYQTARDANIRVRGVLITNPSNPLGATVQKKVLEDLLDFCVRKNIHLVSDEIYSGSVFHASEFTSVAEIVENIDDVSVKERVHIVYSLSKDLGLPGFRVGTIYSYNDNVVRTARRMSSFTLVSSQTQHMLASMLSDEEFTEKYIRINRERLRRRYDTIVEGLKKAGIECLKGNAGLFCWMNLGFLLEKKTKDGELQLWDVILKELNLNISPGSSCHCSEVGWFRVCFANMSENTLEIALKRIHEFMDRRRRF

[4] = biological target: T4, nVenus–ACS7 Δ3 (ACS7^200–447) (Arabidopsis thaliana) (UniProt Q9STR4)
T4 sequence: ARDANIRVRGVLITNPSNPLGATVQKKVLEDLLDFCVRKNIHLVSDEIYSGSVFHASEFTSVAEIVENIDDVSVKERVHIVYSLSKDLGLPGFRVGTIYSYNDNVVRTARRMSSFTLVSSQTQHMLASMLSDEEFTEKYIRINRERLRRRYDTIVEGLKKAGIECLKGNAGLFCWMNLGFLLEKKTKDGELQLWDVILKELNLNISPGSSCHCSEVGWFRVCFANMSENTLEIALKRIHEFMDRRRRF

[5] = biological target: T5, nVenus–ACS7 Δ1 (ACS7^1–50) (Arabidopsis thaliana) (UniProt Q9STR4)
T5 sequence: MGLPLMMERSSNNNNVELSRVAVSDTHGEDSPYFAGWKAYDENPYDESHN

[6] = biological target: T2, nVenus–ACS7 (1-aminocyclopropane-1-carboxylate synthase 7 fused with the N-terminal fragment of Venus) (Arabidopsis thaliana); remark: listed apart in the source

Measured: binding

cCFP–ABI1 (protein phosphatase type 2C ABI1 fused with the C-terminal fragment of CFP) (from UniProt P49597 1-434) (enzyme)
not listed: [6]
binds: all other assays above

cCFP–ABI2 (protein phosphatase type 2C ABI2 fused with the C-terminal fragment of CFP) (from UniProt O04719 1-423) (enzyme)
not listed: [6]
binds: all other assays above

B1: nVenus–ACS7 (1-aminocyclopropane-1-carboxylate synthase 7 fused with the N-terminal fragment of Venus) (enzyme, UniProt Q9STR4 1-447)
chain: T2 sequence
binds: [6]
